Reference: patent US8841304B2, “Pyrrolopyridines as kinase inhibitors” (Array Biopharma, Inc., priority 2008, dated 2014)
Where a name gives a salt, the structure may show the parent alone. Some results were stated once for a whole list of compounds, not compound by compound.

Biological target: T1, human CHK1 kinase domain, amino acids 1 to 273 (Homo sapiens, UniProt O14757)
T1 construct: human CHK1 kinase domain, amino acids 1 to 273; His10 (C); made in house
T1 sequence (O14757 1-273): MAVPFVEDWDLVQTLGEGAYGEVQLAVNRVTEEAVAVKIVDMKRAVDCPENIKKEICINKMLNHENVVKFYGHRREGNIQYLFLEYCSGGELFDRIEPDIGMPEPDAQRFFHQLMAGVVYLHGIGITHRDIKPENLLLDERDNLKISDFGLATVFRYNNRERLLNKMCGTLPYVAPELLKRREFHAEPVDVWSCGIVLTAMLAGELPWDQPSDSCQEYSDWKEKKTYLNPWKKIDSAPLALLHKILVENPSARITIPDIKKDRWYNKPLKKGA
Assay: CHK1 Enzymatic Assay
Assay type: biochemical
Details: 0.5 nM CHK1 enzyme, 2 μM S/T 11 peptide substrate, room temperature, four parameter fit

Row | Structure (SMILES) | IC50 [µM]
1 | CC(C)NC[C@@H](C(=O)N1CCN(c2c(-c3cccc(CO)c3)cnc3[nH]ccc23)CC1)c1ccc(Cl)cc1 [Example 30, (S)-2-(4-chlorophenyl)-1-(4-(5-(3-(hydroxymethyl)phenyl)-1H-pyrrolo[2,3-b]pyridin-4-yl)piperazin-1-yl)-3-(isopropylamino)-propan-1-one dihydrochloride] | < 10.5
2 | CC(C)NC[C@@H](C(=O)N1CCN(c2c(-c3cccc(CC(N)=O)c3)cnc3[nH]ccc23)CC1)c1ccc(Cl)cc1 [Example 31, (S)-2-(3-(4-(4-(2-(4-chlorophenyl)-3-(isopropylamino)-propanoyl)-piperazin-1-yl)-1H-pyrrolo[2,3-b]pyridin-5-yl)phenyl)acetamide dihydrochloride] | < 10.5
3 | CNC(=O)c1ccc(-c2cnc3[nH]ccc3c2N2CCN(C(=O)[C@H](CNC(C)C)c3ccc(Cl)cc3)CC2)cc1 [Example 32, (S)-4-(4-(4-(2-(4-chlorophenyl)-3-(isopropylamino)-propanoyl)-piperazin-1-yl)-1H-pyrrolo[2,3-b]pyridin-5-yl)-N-methylbenzamide dihydrochloride] | < 10.5
4 | CC(C)NC[C@@H](C(=O)N1CCN(c2c(-c3cccc(C#N)c3)cnc3[nH]ccc23)CC1)c1ccc(Cl)cc1 [Example 33, (S)-3-(4-(4-(2-(4-chlorophenyl)-3-(isopropylamino)-propanoyl)-piperazin-1-yl)-1H-pyrrolo[2,3-b]pyridin-5-yl)benzonitrile dihydrochloride] | < 10.5
5 | CC(C)NC[C@@H](C(=O)N1CCN(c2c(-c3cccc(Cl)c3)cnc3[nH]ccc23)CC1)c1ccc(Cl)cc1 [Example 34, (S)-2-(4-chlorophenyl)-1-(4-(5-(3-chlorophenyl)-1H-pyrrolo[2,3-b]pyridin-4-yl)piperazin-1-yl)-3-(isopropylamino)-propan-1-one dihydrochloride] | < 10.5
6 | CC(C)NC[C@@H](C(=O)N1CCN(c2c(-c3cccc(C(F)(F)F)c3)cnc3[nH]ccc23)CC1)c1ccc(Cl)cc1 [Example 35, (S)-2-(4-chlorophenyl)-3-(isopropylamino)-1-(4-(5-(3-(trifluoromethyl)phenyl)-1H-pyrrolo[2,3-b]pyridin-4-yl)piperazin-1-yl)propan-1-one dihydrochloride] | < 10.5
7 | CC(C)NC[C@@H](C(=O)N1CCN(c2c(-c3cccc(CN(C)C)c3)cnc3[nH]ccc23)CC1)c1ccc(Cl)cc1 [Example 36, (S)-2-(4-chlorophenyl)-1-(4-(5-(3-((dimethylamino)-methyl)phenyl)-1H-pyrrolo[2,3-b]pyridin-4-yl)piperazin-1-yl)-3-(isopropylamino)-propan-1-one trihydrochloride] | < 10.5
8 | CC(C)NC[C@@H](C(=O)N1CCN(c2c(-c3cccs3)cnc3[nH]ccc23)CC1)c1ccc(Cl)cc1 [Example 37, (S)-2-(4-chlorophenyl)-3-(isopropylamino)-1-(4-(5-(thiophen-2-yl)-1H-pyrrolo[2,3-b]pyridin-4-yl)piperazin-1-yl)propan-1-one dihydrochloride] | < 10.5
9 | COc1cc(F)cc(-c2cnc3[nH]ccc3c2N2CCN(C(=O)[C@H](CNC(C)C)c3ccc(Cl)cc3)CC2)c1 [Example 38, (S)-2-(4-chlorophenyl)-1-(4-(5-(3-fluoro-5-methoxyphenyl)-1H)-pyrrolo[2,3-b]pyridin-4-yl)piperazin-1-yl)-3-(isopropylamino)-propan-1-one dihydrochloride] | < 10.5
10 | CC(C)NC[C@@H](C(=O)N1CCN(c2c(-c3cc(F)cc(F)c3)cnc3[nH]ccc23)CC1)c1ccc(Cl)cc1 [Example 39, (S)-2-(4-chlorophenyl)-1-(4-(5-(3,5-difluorophenyl)-1H-pyrrolo[2,3-b]pyridin-4-yl)piperazin-1-yl)-3-(isopropylamino)-propan-1-one dihydrochloride] | < 10.5
11 | CC(C)NC[C@@H](C(=O)N1CCN(c2c(-c3ccc(Cn4cccn4)cc3)cnc3[nH]ccc23)CC1)c1ccc(Cl)cc1 [Example 40, (S)-1-(4-(5-(4-((1H-pyrazol-1-yl)methyl)phenyl)-1H-pyrrolo[2,3-b]pyridin-4-yl)piperazin-1-yl)-2-(4-chlorophenyl)-3-(isopropylamino)-propan-1-one trihydrochloride] | < 10.5
12 | CC(C)NC[C@@H](C(=O)N1CCN(c2c(-c3cccc(C(C)C)c3)cnc3[nH]ccc23)CC1)c1ccc(Cl)cc1 [Example 41, (S)-2-(4-chlorophenyl)-3-(isopropylamino)-1-(4-(5-(3-isopropylphenyl)-1H-pyrrolo[2,3-b]pyridin-4-yl)piperazin-1-yl)propan-1-one] | < 10.5
13 | Cc1nnc(-c2cnc3[nH]ccc3c2N2CCN(C(=O)[C@H](CNC(C)C)c3ccc(Cl)cc3)CC2)o1 [Example 42, (S)-2-(4-chlorophenyl)-3-(isopropylamino)-1-(4-(5-(5-methyl-1,3,4-oxadiazol-2-yl)-1H-pyrrolo[2,3-b]pyridin-4-yl)piperazin-1-yl)propan-1-one] | < 10.5
14 | CC(C)NC[C@@H](C(=O)N1CCN(c2c(-c3ccc(F)cc3)cnc3[nH]ccc23)CC1)c1ccc(Cl)cc1 [Example 43, (S)-2-(4-chlorophenol)-1-(4-(5-(4-fluorophenyl)-1H-pyrrolo[2,3-b]pyridin-4-yl)piperazin-1-yl)-3-(isopropylamino)propan-1-one] | < 10.5
15 | CC(C)NC[C@@H](C(=O)N1CCN(c2c(OC(C)C)cnc3[nH]ccc23)CC1)c1ccc(Cl)cc1 [Example 44, (S)-2-(4-chlorophenyl)-1-(4-(5-isopropoxy-1H-pyrrolo[2,3-b]pyridin-4-yl)piperazin-1-yl)-3-(isopropylamino)propan-1-one] | < 10.5
16 | CCC(O)COc1cnc2[nH]ccc2c1N1CCN(C(=O)[C@H](CNC(C)C)c2ccc(Cl)cc2)CC1 (stereo partly drawn) [Example 45, (2S)-2-(4-chlorophenyl)-1-(4-(5-(2-hydroxybutoxy)-1H-pyrrolo[2,3-b]pyridin-4-yl)piperazin-1-yl)-3-(isopropylamino)-propan-1-one dihydrochloride] | < 10.5
17 | CC(C)NC[C@@H](C(=O)N1CCN(c2c(OCCN3CCOCC3)cnc3[nH]ccc23)CC1)c1ccc(Cl)cc1 [Example 46, (S)-2-(4-chlorophenyl)-3-(isopropylamino)-1-(4-(5-(2-morpholinoethoxy)-1H-pyrrolo[2,3-b]pyridin-4-yl)piperazin-1-yl)propan-1-one trihydrochloride] | < 10.5
18 | CC(C)NC[C@@H](C(=O)N1CCN(c2c(OCCCN3CCOCC3)cnc3[nH]ccc23)CC1)c1ccc(Cl)cc1 [Example 47, (S)-2-(4-chlorophenyl)-3-(isopropylamino)-1-(4-(5-(3-morpholinopropoxy)-1H-pyrrolo[2,3-b]pyridin-4-yl)piperazin-1-yl)propan-1-one trihydrochloride] | < 10.5
19 | CC1(C)CC[C@@H]([C@@H](C(=O)N2CCN(c3c(-c4ccccc4)cnc4[nH]ccc34)CC2)c2ccc(Br)cc2)N1 [Example 48, (S)-2-(4-bromophenyl)-2-((S)-5,5-dimethylpyrrolidin-2-yl)-1-(4-(5-phenyl-1H-pyrrolo[2,3-b]pyridin-4-yl)piperazin-1-yl)ethanone] | < 10.5
20 | CC1(C)CC[C@@H]([C@@H](C(=O)N2CCN(c3c(-c4ccccc4)cnc4[nH]ccc34)CC2)c2ccc(Cl)c(F)c2)N1 [Example 49, (S)-2-(4-chloro-3-fluorophenyl)-2-((S)-5,5-dimethylpyrrolidin-2-yl)-1-(4-(5-phenyl-1H-pyrrolo[2,3-b]pyridin-4-yl)piperazin-1-yl)ethanone] | < 10.5
21 | CC(C)NC[C@@H](C(=O)N1CCN(c2ccnc3[nH]cc(NC(=O)c4cccnc4)c23)CC1)c1ccc(Cl)cc1 [Example 50, (S)—N-(4-(4-(2-(4-chlorophenyl)-3-(isopropylamino)propanoyl)piperazin-1-yl)-1H-pyrrolo[2,3-b]pyridin-3-yl)nicotinamide] | < 10.5
22 | CC(C)NC[C@@H](C(=O)N1CCN(c2c(-c3ccccc3F)cnc3[nH]ccc23)CC1)c1ccc(Cl)cc1 [Example 51, (S)-2-(4-chlorophenyl)-1-(4-(5-(2-fluorophenyl)-1H-pyrrolo[2,3-b]pyridin-4-yl)piperazin-1-yl)-3-(isopropylamino)propan-1-one] | < 10.5
23 | CC(=O)Nc1c[nH]c2nccc(N3CCN(C(=O)[C@H](CNC(C)C)c4ccc(Cl)cc4)CC3)c12 [Example 52, (S)—N-(4-(4-(2-(4-chlorophenyl)-3-(isopropylamino)propanoyl)piperazin-1-yl)-1H-pyrrolo[2,3-b]pyridin-3-yl)acetamide] | < 10.5
24 | CC(=O)Nc1c[nH]c2nccc(N3CCN(C(=O)[C@H](N)Cc4ccc(Cl)cc4)CC3)c12 [Example 53, (R)—N-(4-(4-(2-amino-3-(4-chlorophenyl)propanoyl)piperazin-1-yl)-1H-pyrrolo[2,3-b]pyridin-3-yl)acetamide] | < 10.5
25 | N[C@H](Cc1ccc(Cl)cc1)C(=O)N1CCN(c2ccnc3[nH]cc(NC(=O)CO)c23)CC1 [Example 54, (R)—N-(4-(4-(2-amino-3-(4-chlorophenyl)propanoyl)piperazin-1-yl)-1H-pyrrolo[2,3-b]pyridin-3-yl)-2-hydroxyacetamide] | < 10.5
26 | Cc1c[nH]c2ncc(-c3ccccc3)c(N3CCN(C(=O)[C@H](N)Cc4ccc(Cl)cc4)CC3)c12 [Example 55, (R)-2-amino-3-(4-chlorophenyl)-4-(4-(3-methyl-5-phenyl-1H-pyrrolo[2,3-b]pyridin-4-yl)piperazin-1-yl)propan-1-one] | < 10.5
27 | Cc1c[nH]c2ncc(-c3ccccc3)c(N3CCN(C(=O)C(CN)Cc4ccc(Cl)cc4)CC3)c12 (stereo not drawn) [Example 56, 3-amino-2-(4-chlorobenzyl)-4-(4-(3-methyl-5-phenyl-1H-pyrrolo[2,3-b]pyridin-4-yl)piperazin-1-yl)propan-1-one] | < 10.5
